Earlier results, collected in paper PMC3998711 (Nature chemical biology, 2014).

Target: BRDT
Details: low affinity interaction; cited from earlier work

**Q.** For `CCc1cnn2c(NCc3ccc[n+]([O-])c3)cc(N3CCCC[C@H]3CCO)nc12` [dinaciclib], which Kd is on record?
**A.** 37 µM
